These are yes or no findings as the source states them, for the method shown. In cells and extracts the contact can be indirect. Some binding calls cover weakened binding; strength is not graded here.
Molecular target: Esp1-9MYC (S. cerevisiae) (UniProt Q03018)
Test: co-IP

The chains behind the UniProt entries cited, without tags or fusion partners.
UniProt Q03018, whole entry: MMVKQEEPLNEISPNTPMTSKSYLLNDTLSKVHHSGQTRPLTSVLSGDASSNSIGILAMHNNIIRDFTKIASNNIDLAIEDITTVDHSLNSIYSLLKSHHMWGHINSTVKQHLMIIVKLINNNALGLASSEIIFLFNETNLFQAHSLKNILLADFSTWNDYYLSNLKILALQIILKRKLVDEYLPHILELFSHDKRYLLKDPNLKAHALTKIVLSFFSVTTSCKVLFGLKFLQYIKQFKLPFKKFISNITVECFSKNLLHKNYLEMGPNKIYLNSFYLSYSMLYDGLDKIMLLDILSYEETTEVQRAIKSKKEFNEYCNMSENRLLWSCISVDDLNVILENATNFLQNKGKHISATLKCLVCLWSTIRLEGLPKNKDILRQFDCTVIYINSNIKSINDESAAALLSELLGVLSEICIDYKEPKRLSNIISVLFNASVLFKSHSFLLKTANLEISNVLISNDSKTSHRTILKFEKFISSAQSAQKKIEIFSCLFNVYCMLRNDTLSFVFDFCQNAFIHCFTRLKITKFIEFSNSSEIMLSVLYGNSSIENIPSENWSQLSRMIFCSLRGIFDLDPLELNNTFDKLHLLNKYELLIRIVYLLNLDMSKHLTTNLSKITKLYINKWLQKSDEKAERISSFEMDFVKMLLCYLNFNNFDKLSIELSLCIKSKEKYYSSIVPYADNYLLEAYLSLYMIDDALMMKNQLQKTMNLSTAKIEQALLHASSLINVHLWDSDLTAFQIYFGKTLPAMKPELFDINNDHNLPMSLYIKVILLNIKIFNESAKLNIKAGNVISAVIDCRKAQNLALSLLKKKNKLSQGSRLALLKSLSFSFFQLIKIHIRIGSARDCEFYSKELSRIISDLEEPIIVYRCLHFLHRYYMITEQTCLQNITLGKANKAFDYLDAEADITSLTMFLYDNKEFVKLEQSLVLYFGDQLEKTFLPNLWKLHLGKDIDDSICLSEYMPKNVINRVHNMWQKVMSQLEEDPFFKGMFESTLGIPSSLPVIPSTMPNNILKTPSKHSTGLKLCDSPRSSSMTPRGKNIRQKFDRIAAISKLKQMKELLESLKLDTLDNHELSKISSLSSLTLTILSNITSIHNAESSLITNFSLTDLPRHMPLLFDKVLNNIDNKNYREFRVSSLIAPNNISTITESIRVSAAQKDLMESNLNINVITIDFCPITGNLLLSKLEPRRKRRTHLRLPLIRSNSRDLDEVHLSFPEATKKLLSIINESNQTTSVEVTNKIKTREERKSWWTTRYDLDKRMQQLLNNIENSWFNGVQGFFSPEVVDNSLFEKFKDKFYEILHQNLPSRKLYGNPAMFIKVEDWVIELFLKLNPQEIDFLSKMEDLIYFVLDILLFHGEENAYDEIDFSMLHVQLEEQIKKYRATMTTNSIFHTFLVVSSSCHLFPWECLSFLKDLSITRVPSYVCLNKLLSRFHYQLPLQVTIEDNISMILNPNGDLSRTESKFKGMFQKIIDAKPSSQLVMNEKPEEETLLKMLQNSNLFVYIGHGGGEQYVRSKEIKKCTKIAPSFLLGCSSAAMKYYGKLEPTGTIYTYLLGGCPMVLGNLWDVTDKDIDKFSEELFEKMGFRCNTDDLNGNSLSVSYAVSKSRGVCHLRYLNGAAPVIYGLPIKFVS

- binding: binds
B1: Pds1-6HA (protein, UniProt P40316 1-373)
chain: MMPANEDKENNIVYTGNESSGINFPQTPAHLLKRSHSNILKPPVRLDQLKRDANSNNGNTLKYIQGGKEVSPTKRLHTHAQQQGRLPLAAKDNNRSKSFIFPETSNQSKDADLPQLQNTLSIRKNDQLRKLSQISRSRSRANHNDLLSNSRKLQKYGSVLGYNALPKMKSLVLKDLADSGKNEESSDDDEGNEDSESKLGKKLQSALLKQDSSDGENELNGGLGLFNEQGGLQQLIKNSTKNEQKTKNDKSDKTDDYDIEIAPQRQEPLPYVPEGYSPFQQDDIEKLKTFNSPYKLDLEDEDDTPDKVDLLPLEQIDEEGEKDETECITRNQEEGAALPLLSKNFKEVAAVPTMELVYSEEGLDPEELEDLVT

From paper doi:10.1101/648386
